The other results are listed elsewhere or left out.
Columns and labels:
Assay in all cases: log2 fold change, soluble protein after heating vs DMSO (PISA); higher = thermal stabilisation; K562 lysate, 10 uM; active = over 0.2 and 3.5 SD of the protein, either way, in both replicates (recomputed)
[1] = compound: CN1CC[C@H](c2c(O)cc(O)c3c(=O)cc(-c4ccccc4Cl)oc23)[C@H](O)C1 [alvocidib]
Summary of the method: (§1)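 To prepare the extract, K562 pellets were dounce-homogenised in PBS pH 7.4 with 1 mM MgCl2, giving crude material at 1 mg/mL protein. This was treated with 10 μM compound for 30 min, then heated in aliquots for 3 min over 48°C-58°C before pooling and addition of NP-40 to 0.5% at 4°C. Centrifugation at 21,000xg for 90 min left soluble protein in the supernatant, which TMTpro 16plex LC-MS/MS quantified with equalised channel sums. Results are log-two fold changes in thermal stability compared with solvent controls, from duplicates.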

Protein sequences, listed by entry. Tags and fused reporters are not part of them. Lines headed by an entry give the natural chain unless they say otherwise; changes in a name come on top.
UniProt Q92616, whole entry, looked up: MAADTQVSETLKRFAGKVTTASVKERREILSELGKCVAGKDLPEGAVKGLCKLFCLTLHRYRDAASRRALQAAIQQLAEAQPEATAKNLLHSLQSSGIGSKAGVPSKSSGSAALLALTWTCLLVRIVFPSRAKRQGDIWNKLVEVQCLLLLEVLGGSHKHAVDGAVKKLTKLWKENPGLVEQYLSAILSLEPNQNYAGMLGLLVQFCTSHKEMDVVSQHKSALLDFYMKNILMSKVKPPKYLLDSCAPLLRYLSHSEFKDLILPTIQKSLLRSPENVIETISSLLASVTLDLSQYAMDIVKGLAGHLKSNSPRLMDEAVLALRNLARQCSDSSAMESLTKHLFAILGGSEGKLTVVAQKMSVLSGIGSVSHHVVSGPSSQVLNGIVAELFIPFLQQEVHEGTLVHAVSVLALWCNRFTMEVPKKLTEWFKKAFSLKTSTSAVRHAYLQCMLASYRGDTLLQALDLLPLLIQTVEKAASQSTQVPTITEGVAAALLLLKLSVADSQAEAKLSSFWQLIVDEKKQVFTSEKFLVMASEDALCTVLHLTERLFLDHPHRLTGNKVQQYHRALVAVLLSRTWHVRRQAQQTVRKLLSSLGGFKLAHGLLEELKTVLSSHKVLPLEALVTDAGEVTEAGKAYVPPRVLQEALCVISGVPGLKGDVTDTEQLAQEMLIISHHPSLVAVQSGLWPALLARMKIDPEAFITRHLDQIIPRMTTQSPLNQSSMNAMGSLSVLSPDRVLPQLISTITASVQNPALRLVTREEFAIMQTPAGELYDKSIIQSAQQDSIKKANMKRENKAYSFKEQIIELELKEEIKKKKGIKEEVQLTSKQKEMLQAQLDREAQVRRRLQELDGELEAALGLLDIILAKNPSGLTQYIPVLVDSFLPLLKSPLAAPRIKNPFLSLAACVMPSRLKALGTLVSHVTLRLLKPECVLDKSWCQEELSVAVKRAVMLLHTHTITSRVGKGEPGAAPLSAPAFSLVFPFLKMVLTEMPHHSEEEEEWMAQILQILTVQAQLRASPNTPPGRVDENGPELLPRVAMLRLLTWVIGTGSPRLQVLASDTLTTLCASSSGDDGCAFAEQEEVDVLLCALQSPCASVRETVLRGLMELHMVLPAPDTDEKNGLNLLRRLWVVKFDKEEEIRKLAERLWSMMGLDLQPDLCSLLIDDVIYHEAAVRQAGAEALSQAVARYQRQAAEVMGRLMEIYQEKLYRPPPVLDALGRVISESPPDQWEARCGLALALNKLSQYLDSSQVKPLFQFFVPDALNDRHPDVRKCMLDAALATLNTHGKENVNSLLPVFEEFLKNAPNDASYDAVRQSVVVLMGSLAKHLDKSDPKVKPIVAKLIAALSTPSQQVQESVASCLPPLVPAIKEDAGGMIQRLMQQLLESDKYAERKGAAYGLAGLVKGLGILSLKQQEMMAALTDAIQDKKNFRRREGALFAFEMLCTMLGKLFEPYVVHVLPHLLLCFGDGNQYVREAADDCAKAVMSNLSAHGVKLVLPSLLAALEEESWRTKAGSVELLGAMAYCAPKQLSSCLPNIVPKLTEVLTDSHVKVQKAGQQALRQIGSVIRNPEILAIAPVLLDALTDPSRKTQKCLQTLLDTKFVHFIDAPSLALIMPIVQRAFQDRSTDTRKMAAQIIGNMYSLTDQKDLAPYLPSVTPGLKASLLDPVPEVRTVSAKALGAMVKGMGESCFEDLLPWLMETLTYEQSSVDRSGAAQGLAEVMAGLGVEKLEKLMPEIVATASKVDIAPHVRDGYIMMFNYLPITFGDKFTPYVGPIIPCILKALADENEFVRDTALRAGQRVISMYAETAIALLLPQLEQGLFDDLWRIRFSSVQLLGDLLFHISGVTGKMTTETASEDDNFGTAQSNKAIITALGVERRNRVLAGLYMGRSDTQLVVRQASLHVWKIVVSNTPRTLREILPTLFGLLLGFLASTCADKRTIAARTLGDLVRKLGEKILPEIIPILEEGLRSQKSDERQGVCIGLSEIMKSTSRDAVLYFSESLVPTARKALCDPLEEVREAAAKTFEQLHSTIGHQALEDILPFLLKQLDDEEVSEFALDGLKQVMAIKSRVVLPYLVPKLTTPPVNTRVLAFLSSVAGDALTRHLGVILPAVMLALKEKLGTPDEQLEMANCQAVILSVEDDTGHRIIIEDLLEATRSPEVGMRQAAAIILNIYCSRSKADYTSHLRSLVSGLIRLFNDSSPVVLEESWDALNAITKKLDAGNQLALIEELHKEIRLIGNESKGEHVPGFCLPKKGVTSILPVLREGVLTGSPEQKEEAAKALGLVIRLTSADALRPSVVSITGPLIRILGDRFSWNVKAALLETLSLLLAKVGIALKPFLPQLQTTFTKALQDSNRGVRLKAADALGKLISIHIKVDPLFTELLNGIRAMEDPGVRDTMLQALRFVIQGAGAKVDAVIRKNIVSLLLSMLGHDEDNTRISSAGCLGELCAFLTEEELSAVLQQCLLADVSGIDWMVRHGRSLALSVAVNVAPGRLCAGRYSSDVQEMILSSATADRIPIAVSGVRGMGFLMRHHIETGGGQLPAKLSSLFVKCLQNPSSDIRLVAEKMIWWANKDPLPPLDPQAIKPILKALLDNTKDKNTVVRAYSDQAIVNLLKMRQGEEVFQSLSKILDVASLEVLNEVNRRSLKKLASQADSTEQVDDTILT
UniProt P41250: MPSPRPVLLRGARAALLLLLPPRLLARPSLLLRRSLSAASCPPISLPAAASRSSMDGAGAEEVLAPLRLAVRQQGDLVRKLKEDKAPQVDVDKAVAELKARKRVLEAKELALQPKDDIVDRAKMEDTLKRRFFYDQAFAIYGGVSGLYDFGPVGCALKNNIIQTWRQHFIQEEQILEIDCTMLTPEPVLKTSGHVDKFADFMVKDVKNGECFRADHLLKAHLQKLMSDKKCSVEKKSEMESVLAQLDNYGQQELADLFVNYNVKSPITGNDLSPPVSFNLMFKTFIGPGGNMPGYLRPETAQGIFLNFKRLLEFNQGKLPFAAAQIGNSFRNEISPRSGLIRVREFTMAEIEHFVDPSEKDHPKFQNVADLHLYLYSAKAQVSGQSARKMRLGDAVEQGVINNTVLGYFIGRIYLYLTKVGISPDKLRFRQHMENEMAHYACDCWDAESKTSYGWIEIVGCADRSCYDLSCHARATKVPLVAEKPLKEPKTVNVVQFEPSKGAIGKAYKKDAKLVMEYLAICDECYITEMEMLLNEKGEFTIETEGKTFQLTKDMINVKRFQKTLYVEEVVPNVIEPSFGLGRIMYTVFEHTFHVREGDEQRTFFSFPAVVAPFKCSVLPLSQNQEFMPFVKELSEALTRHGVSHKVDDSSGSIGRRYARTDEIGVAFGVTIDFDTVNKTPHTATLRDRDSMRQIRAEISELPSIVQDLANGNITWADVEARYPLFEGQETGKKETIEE
UniProt Q01415: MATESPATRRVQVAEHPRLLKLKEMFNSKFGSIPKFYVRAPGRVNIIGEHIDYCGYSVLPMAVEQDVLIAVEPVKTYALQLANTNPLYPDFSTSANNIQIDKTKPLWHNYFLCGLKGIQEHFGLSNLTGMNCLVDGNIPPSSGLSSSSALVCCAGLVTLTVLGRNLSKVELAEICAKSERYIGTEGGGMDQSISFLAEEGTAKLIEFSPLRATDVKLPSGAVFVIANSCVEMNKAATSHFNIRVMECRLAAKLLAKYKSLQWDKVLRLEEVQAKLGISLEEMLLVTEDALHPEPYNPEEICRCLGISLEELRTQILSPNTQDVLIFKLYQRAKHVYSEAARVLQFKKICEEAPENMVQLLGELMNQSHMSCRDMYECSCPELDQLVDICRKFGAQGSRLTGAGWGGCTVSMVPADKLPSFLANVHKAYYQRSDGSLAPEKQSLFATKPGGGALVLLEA
UniProt Q6ZNA5: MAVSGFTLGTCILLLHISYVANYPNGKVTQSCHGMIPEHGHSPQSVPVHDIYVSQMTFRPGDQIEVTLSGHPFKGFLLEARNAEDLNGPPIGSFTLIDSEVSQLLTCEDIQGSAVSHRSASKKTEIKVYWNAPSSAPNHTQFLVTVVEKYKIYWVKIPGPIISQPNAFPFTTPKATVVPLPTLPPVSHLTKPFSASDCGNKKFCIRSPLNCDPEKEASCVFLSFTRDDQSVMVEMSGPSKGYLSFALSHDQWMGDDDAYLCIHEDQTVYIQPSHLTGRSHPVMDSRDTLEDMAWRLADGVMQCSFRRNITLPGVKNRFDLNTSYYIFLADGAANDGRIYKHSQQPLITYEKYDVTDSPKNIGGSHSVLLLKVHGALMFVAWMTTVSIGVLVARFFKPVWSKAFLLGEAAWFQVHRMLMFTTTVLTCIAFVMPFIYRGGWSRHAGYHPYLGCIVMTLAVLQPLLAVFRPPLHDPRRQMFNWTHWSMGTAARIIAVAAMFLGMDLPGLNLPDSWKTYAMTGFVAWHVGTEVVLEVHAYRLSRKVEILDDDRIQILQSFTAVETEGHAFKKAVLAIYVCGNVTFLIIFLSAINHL
UniProt Q96AE4: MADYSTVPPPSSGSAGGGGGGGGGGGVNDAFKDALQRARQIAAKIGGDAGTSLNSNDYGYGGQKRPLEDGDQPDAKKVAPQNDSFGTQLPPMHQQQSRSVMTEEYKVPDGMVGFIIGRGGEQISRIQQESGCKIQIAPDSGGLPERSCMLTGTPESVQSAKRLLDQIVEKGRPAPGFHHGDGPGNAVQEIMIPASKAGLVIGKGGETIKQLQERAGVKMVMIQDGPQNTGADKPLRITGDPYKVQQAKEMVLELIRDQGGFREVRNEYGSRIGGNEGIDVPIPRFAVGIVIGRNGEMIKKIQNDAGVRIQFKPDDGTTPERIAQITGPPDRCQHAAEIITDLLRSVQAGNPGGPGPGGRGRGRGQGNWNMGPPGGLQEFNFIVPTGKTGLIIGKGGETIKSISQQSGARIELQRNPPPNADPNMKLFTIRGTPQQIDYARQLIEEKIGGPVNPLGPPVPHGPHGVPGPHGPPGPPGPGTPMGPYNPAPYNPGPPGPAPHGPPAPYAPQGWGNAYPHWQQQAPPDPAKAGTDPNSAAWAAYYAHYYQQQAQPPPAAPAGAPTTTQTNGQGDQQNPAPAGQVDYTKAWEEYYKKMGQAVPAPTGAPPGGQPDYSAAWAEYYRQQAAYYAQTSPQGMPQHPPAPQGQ
UniProt Q9BTY2: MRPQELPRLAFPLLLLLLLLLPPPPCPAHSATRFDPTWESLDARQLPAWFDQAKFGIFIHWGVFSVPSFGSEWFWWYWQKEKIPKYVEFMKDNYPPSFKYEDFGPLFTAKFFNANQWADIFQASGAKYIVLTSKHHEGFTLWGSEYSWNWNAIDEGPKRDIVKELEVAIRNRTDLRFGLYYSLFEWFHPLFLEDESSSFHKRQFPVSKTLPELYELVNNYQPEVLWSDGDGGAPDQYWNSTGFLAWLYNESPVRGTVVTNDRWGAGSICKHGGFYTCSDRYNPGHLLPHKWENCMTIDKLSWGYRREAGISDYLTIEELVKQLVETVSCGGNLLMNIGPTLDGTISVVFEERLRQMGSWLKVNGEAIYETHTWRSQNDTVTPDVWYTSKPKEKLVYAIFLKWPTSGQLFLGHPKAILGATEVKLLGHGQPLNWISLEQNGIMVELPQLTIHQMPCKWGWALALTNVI
UniProt Q6ZNW5: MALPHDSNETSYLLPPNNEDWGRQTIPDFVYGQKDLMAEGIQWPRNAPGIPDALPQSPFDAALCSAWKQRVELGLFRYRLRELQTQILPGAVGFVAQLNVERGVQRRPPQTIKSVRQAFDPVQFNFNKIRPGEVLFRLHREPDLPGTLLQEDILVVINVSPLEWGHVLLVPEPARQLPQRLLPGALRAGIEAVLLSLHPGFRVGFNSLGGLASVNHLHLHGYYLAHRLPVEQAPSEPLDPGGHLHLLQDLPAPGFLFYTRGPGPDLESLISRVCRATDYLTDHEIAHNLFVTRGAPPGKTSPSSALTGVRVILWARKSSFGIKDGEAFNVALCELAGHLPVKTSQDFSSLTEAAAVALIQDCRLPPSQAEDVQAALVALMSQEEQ
UniProt Q8NCW6: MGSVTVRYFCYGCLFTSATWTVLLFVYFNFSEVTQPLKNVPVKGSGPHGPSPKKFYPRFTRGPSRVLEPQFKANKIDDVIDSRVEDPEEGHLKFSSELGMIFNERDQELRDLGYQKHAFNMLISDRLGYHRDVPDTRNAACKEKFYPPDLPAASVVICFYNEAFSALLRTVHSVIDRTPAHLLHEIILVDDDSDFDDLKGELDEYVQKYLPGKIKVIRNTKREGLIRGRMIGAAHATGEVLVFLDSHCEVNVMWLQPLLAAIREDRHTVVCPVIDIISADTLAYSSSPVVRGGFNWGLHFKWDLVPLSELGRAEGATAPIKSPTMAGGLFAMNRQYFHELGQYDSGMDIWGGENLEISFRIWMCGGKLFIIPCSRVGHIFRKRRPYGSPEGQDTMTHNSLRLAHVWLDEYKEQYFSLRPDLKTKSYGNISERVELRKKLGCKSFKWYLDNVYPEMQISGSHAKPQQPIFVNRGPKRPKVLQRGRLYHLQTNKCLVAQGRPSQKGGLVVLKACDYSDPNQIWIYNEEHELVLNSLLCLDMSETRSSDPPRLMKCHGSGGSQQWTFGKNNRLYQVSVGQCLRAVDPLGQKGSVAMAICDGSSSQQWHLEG

[2] = compound: CN1CCc2c(c3ccccc3n2Cc2ccc(C(=O)NO)cc2)C1 [Tubastatin A]
Summary of the method: as §1

[3] = compound: CNC(=O)C1=CC=CC=C1NC2=NC(=NC=C2Cl)NC3=C(C=C(C=C3)N4CCOCC4)OC
Summary of the method: as §1

[4] = compound: CNC(=O)c1ccc(Nc2ncc(C(F)(F)F)c(NCc3nccnc3N(C)S(C)(=O)=O)n2)cc1 [defactinib]
Summary of the method: as §1

[5] = compound: CNc1nc(-c2ccc3c(N)n[nH]c3c2)cc(N2C[C@@H](C(=O)NC3CCCCC3)CC[C@H]2C)n1
Summary of the method: as §1

[6] = compound: COC(=O)N[C@@H](C)CNc1nccc(-c2cn(C(C)C)nc2-c2cc(Cl)cc(NS(C)(=O)=O)c2F)n1 [encorafenib]
Summary of the method: as §1

[7] = compound: COC(=O)[C@H](CCSC)NC(=O)C1=C(C=C(C=C1)NC[C@H](CS)N)C2=CC=CC=C2
Summary of the method: as §1

[8] = compound: COc1cc(Nc2ncc3c(n2)-c2ccc(Cl)cc2C(c2c(F)cccc2OC)=NC3)ccc1C(=O)O [alisertib]
Summary of the method: as §1

[9] = compound: COc1cc2nc(-c3cc(F)ccc3O)nc(N[C@@H]3CNC[C@H]3C(C)(C)O)c2cc1OC
Summary of the method: as §1

[10] = compound: COc1cc2ncnc(Nc3ccc(F)c(Cl)c3)c2cc1OCCCN1CCOCC1 [gefitinib]
Summary of the method: as §1

[11] = compound: CS(=O)(=O)CCNCc1ccc(-c2ccc3ncnc(Nc4ccc(OCc5cccc(F)c5)c(Cl)c4)c3c2)o1 [lapatinib]
Summary of the method: as §1

[12] = compound: CS(=O)(=O)N1CCN(Cc2cc3nc(-c4cccc5[nH]ncc45)nc(N4CCOCC4)c3s2)CC1 [pictilisib]
Summary of the method: as §1

[13] = compound: C[C@@H](Oc1cc(-c2cnn(C3CCNCC3)c2)cnc1N)c1c(Cl)ccc(F)c1Cl [crizotinib]
Summary of the method: as §1

[14] = compound: C[C@H](C1=CC=C(C=C1)C(=O)NC2=C3C=CNC3=NC=C2)N
Summary of the method: as §1

[15] = compound: C[C@H](Nc1ncnc2nc[nH]c12)c1cc2cccc(Cl)c2c(=O)n1-c1ccccc1 [duvelisib]
Summary of the method: as §1

[16] = compound: Cc1cc(Nc2cc(CN3CCOCC3)c3nc(C)c(Cc4ccc(Cl)cc4F)n3n2)n[nH]1 [gandotinib]
Summary of the method: as §1

[17] = compound: Cc1cc(Nc2cc(N3CCN(C)CC3)nc(Sc3ccc(NC(=O)C4CC4)cc3)n2)n[nH]1 [tozasertib]
Summary of the method: as §1

[18] = compound: Cc1ccc(-n2nc(C(C)(C)C)cc2NC(=O)Nc2ccc(OCCN3CCOCC3)c3ccccc23)cc1 [doramapimod]
Summary of the method: as §1

[19] = compound: Cc1ccc(NC(=O)c2ccc(CN3CC[C@H](N(C)C)C3)c(C(F)(F)F)c2)cc1Nc1nccc(-c2cncnc2)n1 [bafetinib]
Summary of the method: as §1

[20] = compound: Cc1cccc(CC(=O)N2CCc3c2ccc(-c2cn(C)c4ncnc(N)c24)c3F)n1
Summary of the method: as §1

Measured: log2 fold change

GCN1 (UniProt Q92616)
inactive: [1] 0.036 | [2] -0.181 | [3] 0.001 | [4] 0.037 | [5] -0.023 | [6] 0.014 | [7] 0.147 | [8] 0.023 | [9] 0.006 | [10] -0.004 | [11] -0.034 | [12] -0.027 | [13] -0.125 | [14] -0.002 | [15] 0.008 | [16] -0.121 | [17] 0.017 | [18] 0.019 | [19] -0.049 | [20] 0.053

GARS1 (UniProt P41250)
inactive: [1] 0.003 | [2] 0.051 | [3] -0.01 | [4] -0.013 | [5] 0.024 | [6] -0.035 | [7] -0.124 | [8] 0.004 | [9] 0.016 | [10] 0.003 | [11] -0.005 | [12] 0.002 | [13] 0.032 | [14] 0.007 | [15] 0.019 | [16] 0.021 | [17] 0.004 | [18] -0.009 | [19] 0.038 | [20] -0.023

GALK2 (UniProt Q01415)
inactive: [1] -0.002 | [2] 0.052 | [3] -0.03 | [4] -0.028 | [5] 0.065 | [6] -0.014 | [7] -0.039 | [8] -0.012 | [9] -0.004 | [10] -0.015 | [11] -0.003 | [12] 0 | [13] 0.002 | [14] -0.033 | [15] 0.049 | [16] -0.002 | [17] 0.039 | [18] -0.004 | [19] 0.025 | [20] 0.001

GALNT7 (UniProt Q86SF2)
inactive: [1] 0.019 | [2] 0.037 | [3] 0.011 | [4] 0.023 | [5] 0.025 | [6] 0.007 | [7] -0.058 | [8] -0.029 | [9] 0.001 | [10] -0.042 | [11] 0.006 | [12] -0.026 | [13] -0.012 | [14] 0.163 | [15] -0.011 | [16] -0.011 | [17] -0.006 | [18] -0.027 | [19] 0.034 | [20] -0.065

FRRS1 (UniProt Q6ZNA5)
inactive: [1] -0.042 | [2] 0.004 | [3] 0.019 | [4] 0.004 | [5] 0.005 | [6] -0.038 | [7] -0.058 | [8] 0.033 | [9] 0.061 | [10] 0.06 | [11] 0.03 | [12] 0.006 | [13] -0.006 | [14] -0.154 | [15] 0.005 | [16] 0.074 | [17] 0.013 | [18] 0.007 | [19] 0.03 | [20] 0.12

GATAD2B (UniProt Q8WXI9)
inactive: [1] -0.01 | [2] -0.005 | [3] 0.003 | [4] -0.002 | [5] 0.017 | [6] -0.007 | [7] 0 | [8] -0.021 | [9] 0.021 | [10] -0.051 | [11] 0.024 | [12] 0.008 | [13] -0.032 | [14] 0.02 | [15] -0.044 | [16] 0.015 | [17] 0.067 | [18] -0.011 | [19] -0.022 | [20] -0.01

Copied from the results shown (2 entries):
GALK2 (UniProt Q01415)
inactive: [1] -0.002 | [2] 0.052 | [3] -0.03 | [4] -0.028 | [5] 0.065 | [6] -0.014 | [7] -0.039 | [8] -0.012 | [9] -0.004 | [10] -0.015 | [11] -0.003 | [12] 0 | [13] 0.002 | [14] -0.033 | [15] 0.049 | [16] -0.002 | [17] 0.039 | [18] -0.004 | [19] 0.025 | [20] 0.001

GALNT7 (UniProt Q86SF2)
inactive: [1] 0.019 | [2] 0.037 | [3] 0.011 | [4] 0.023 | [5] 0.025 | [6] 0.007 | [7] -0.058 | [8] -0.029 | [9] 0.001 | [10] -0.042 | [11] 0.006 | [12] -0.026 | [13] -0.012 | [14] 0.163 | [15] -0.011 | [16] -0.011 | [17] -0.006 | [18] -0.027 | [19] 0.034 | [20] -0.065

The list goes on.

FUNDC1 (UniProt Q8IVP5)
inactive: [1] 0.031 | [2] 0.078 | [3] -0.194 | [4] -0.154 | [5] -0.2 | [6] 0.024 | [7] 0.039 | [8] -0.439 | [9] 0.023 | [10] -0.264 | [11] 0.074 | [13] 0.05 | [14] -0.363 | [15] 0.153 | [16] 0.148 | [17] 0.013 | [18] -0.089 | [20] 0.014

GCFC2 (UniProt P16383)
inactive: [1] 0 | [2] -0.052 | [3] 0.076 | [4] 0.078 | [5] -0.021 | [6] 0.008 | [7] 0.011 | [8] -0.002 | [9] -0.004 | [10] 0.026 | [11] 0.041 | [12] 0.051 | [13] -0.013 | [14] 0.013 | [15] 0.025 | [16] -0.042 | [17] -0.003 | [18] -0.042 | [19] -0.096 | [20] -0.016

FUBP1 isoform 2 (UniProt Q96AE4)
inactive: [1] -0.038 | [2] 0.063 | [3] -0.024 | [4] -0.028 | [5] 0.015 | [6] -0.017 | [7] -0.028 | [8] 0.016 | [9] 0.008 | [10] 0.008 | [11] 0.006 | [12] 0.006 | [13] 0.012 | [14] 0.033 | [15] -0.006 | [16] 0.043 | [17] 0.014 | [18] 0.017 | [19] 0.034 | [20] -0.008

GAB1 isoform 2 (UniProt Q13480)
inactive: [1] -0.059 | [2] -0.026 | [3] -0.009 | [4] -0.008 | [5] 0.023 | [6] -0.019 | [7] 0.006 | [8] -0.008 | [9] 0.013 | [10] 0.075 | [11] -0.023 | [12] 0.002 | [13] -0.025 | [14] -0.133 | [15] 0.063 | [16] 0.036 | [17] 0.01 | [18] 0.085 | [19] -0.072 | [20] 0.15

FUCA1 (UniProt P04066)
inactive: [1] -0.039 | [2] 0.016 | [3] 0.034 | [4] 0.014 | [5] 0.057 | [6] -0.012 | [7] -0.009 | [8] -0.055 | [9] 0.015 | [10] 0.029 | [11] -0.015 | [12] 0.006 | [13] -0.044 | [14] -0.114 | [15] 0.039 | [16] 0.059 | [17] -0.018 | [18] 0.03 | [19] -0.047 | [20] 0.044

FUCA2 (UniProt Q9BTY2)
inactive: [1] -0.086 | [2] 0.039 | [3] -0.017 | [4] -0.01 | [5] 0.037 | [6] 0.021 | [7] -0.052 | [8] 0.007 | [9] 0.013 | [10] 0 | [11] -0.003 | [12] -0.038 | [13] 0.009 | [14] -0.186 | [15] -0.004 | [16] 0.122 | [17] -0.042 | [18] 0.01 | [19] -0.013 | [20] 0.08

FRA10AC1 (UniProt Q70Z53)
inactive: [1] -0.037 | [2] 0.014 | [3] 0.028 | [4] -0.046 | [5] 0.026 | [6] 0.004 | [7] -0.042 | [8] 0.004 | [9] 0.039 | [10] 0.032 | [11] 0.006 | [12] 0.005 | [13] 0.01 | [14] -0.014 | [15] -0.027 | [16] 0.022 | [17] 0.031 | [18] 0 | [19] -0.023 | [20] -0.066

GDPGP1 (UniProt Q6ZNW5)
inactive: [1] -0.03 | [2] 0.008 | [3] 0.02 | [4] -0.011 | [5] 0.015 | [6] 0.03 | [7] 0.019 | [8] -0.099 | [9] 0.008 | [10] -0.044 | [11] 0.008 | [12] -0.005 | [13] 0.083 | [14] 0.003 | [15] -0.043 | [16] 0.048 | [17] -0.015 | [18] 0.005 | [19] -0.036 | [20] 0.115

GAB2 (UniProt Q9UQC2)
inactive: [1] -0.037 | [2] -0.143 | [3] 0.047 | [4] -0.046 | [5] -0.017 | [6] 0.014 | [7] 0.027 | [8] -0.03 | [9] 0.034 | [10] 0.029 | [11] 0.007 | [12] -0.023 | [13] -0.013 | [14] -0.014 | [15] 0.014 | [16] 0.031 | [17] 0.004 | [18] 0.012 | [19] 0.003 | [20] 0.064

GALNT11 (UniProt Q8NCW6)
inactive: [1] -0.076 | [2] 0.06 | [3] -0.047 | [4] 0.094 | [5] -0.022 | [6] 0.13 | [7] -0.018 | [8] -0.119 | [9] -0.01 | [10] 0.013 | [11] -0.107 | [13] -0.034 | [14] -0.143 | [15] 0.093 | [16] 0.058 | [17] -0.041 | [18] 0.026 | [20] 0.132

Reference: the supplement of paper PMC10849652
